# For at least one compound, name, drawing or mass did not settle the structure.
# How the values were obtained:
# [1] = system: model of rats with acute exacerbation of chronic obstructive pulmonary disease; assay: Observation of general condition; type: in vivo, SD rats; conditions: dexamethasone group 0.23 mg/kg/d gavage
# [2] = system: model of rats with acute exacerbation of chronic obstructive pulmonary disease; assay: Pathological examination of lung tissue (HE staining; MLI, MAN, bronchial wall thickness); type: in vivo, SD rats; conditions: FIG. 6; dexamethasone group 0.23 mg/kg/d gavage 7 days, 8 rats
compound,measurement,setting,value
"C[C@@H]1C[C@H]2[C@@H]3CCC4=CC(=O)C=C[C@]4(C)[C@@]3(F)[C@@H](O)C[C@]2(C)[C@@]1(O)C(=O)CO [Dexamethasone, dexamethasone]",General condition after administration,[1],"physical activity was increased significantly, shortness of breath was alleviated a lot, and coughing and sneezing disappeared"
same,Morphology of lung tissue and bronchus (HE staining) versus model control group,[2],the progress of the disease is reduced when compared with the model control group

# Source: patent US20220008495A1, “APPLICATION OF PHLEGMYHEATCLEAR IN PREPARATION OF DRUG FOR TREATMENT OF ACUTE EXACERBATION OF CHRONIC OBSTRUCTIVE PULMONARY DISEASE” (SHANGHAI KAIBAO PHARMACEUTICAL CO., LTD., priority 2020, published 2022)
